From paper PMC5074805
These are yes or no findings as the source states them, for the method shown.

Target: 30S ribosomal protein S20 (RPS20) from Thermus thermophilus (Thermus thermophilus) (UniProt P80380)
Assay: SEC-MALS; static light scattering: Superdex S200 gel size exclusion column coupled to a miniDAWN Tristar laser photometer and a differential refractometer; buffer A (50 mM Tris pH 8, 150 mM NaCl); both purified

binding: no binding
B1: 30S ribosomal protein S20 (RPS20) from Thermus thermophilus (protein, UniProt P80380 1-106)
chain: MAQKKPKRNLSALKRHRQSLKRRLRNKAKKSAIKTLSKKAIQLAQEGKAEEALKIMRKAESLIDKAAKGSTLHKNAAARRKSRLMRKVRQLLEAAGAPLIGGGLSA
